Results are given in words; binding and its absence hold for the method and conditions named. Binding calls can cover weak binding; strength is not graded here.
Experiments:
[1] = target: T. thermophilus PilN (C-terminus immediately after the predicted TM helix) (T. thermophilus) (UniProt Q8VRL7); experiment: two-hybrid; Y2H by co-transformation of pGAD and pGBD fusions into AH109; serial dilutions on SD-His and SD-Ade, and β-galactosidase activity (ONPG)
[2] = target: T. thermophilus PilW (C-terminus immediately after the predicted TM helix) (T. thermophilus) (UniProt Q8VRL5); experiment: as above

By UniProt entry, the sequences of proteins in these tests, tags left out. Where a name states a change or a piece, a line headed by the entry shows the natural chain unless it says otherwise.
UniProt Q8VRL7: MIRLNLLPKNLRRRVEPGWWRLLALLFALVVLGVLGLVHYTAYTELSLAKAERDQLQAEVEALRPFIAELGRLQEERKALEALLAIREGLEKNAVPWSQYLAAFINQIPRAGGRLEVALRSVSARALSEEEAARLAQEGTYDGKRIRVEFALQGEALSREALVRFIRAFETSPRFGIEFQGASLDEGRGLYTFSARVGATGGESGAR
UniProt Q8VRL6: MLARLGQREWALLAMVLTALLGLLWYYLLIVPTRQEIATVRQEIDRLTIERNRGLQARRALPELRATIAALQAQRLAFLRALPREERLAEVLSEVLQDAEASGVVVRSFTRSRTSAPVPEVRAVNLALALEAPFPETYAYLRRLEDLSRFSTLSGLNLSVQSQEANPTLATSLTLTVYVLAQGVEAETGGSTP

binding [1]: binds
binding [2]: binds
Substance: T. thermophilus PilO (C-terminus immediately after the predicted TM helix) (from UniProt Q8VRL6) (domain or fragment)

— paper PMC3724824
